Experimental data from patent publication US20240400659A1.
Results are given in words; binding and its absence hold for the method and conditions named. Some results given as binding are weak or reduced against the parent protein; the word gives no strength.

By UniProt entry, the sequences of proteins in these tests, tags left out. Residues count along the entry.
UniProt Q99523, residues 78-755: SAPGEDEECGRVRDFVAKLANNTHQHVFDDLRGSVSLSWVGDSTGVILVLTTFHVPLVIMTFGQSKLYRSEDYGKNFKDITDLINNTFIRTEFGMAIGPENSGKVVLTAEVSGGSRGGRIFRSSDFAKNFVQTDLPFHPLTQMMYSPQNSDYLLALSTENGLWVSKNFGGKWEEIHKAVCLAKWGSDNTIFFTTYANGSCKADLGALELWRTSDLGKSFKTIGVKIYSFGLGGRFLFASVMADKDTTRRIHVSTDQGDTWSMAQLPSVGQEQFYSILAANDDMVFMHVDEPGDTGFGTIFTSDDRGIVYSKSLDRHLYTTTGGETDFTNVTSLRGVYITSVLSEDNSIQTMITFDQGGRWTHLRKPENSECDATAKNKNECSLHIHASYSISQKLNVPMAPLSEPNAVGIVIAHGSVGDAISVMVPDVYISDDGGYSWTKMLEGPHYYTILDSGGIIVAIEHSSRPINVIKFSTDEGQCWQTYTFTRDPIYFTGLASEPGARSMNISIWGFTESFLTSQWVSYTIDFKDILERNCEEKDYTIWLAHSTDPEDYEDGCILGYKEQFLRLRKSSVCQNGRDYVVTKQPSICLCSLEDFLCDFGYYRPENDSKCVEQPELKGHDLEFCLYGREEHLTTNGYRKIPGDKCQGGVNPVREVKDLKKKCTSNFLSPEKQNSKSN

How the values were obtained:
[1] = target: very low-density lipoprotein receptor (UniProt P98155); assay: pH affinity ELISA, coated target, FIG. 3C
[2] = target: very low-density lipoprotein receptor (UniProt P98155); assay: pH affinity ELISA, coated target (Example 13)
Sortilin [3] = target: Sortilin (UniProt Q99523); assay: pH affinity ELISA, coated target, FIG. 3D
Sortilin [4] = target: Sortilin (UniProt Q99523); assay: pH affinity ELISA, coated target (Example 13)
Sortilin [5] = target: Sortilin (UniProt Q99523); assay: pH affinity ELISA, coated target

binding [1] | binding [2] | binding (Sortilin [3]) | binding (Sortilin [4]) | binding (Sortilin [5]) | Substance
binds | binds |  |  |  | Apolipoprotein E3 (from UniProt P02649 19-317) (ligand)
binds | binds | binds | binds | binds | Apolipoprotein E4 (from UniProt P02649 19-317) (ligand)
 |  | binds | binds |  | Apolipoprotein E2 (from UniProt P02649 19-317) (ligand)
